Drawing on article PMC4144780, “MSRB7 reverses oxidation of GSTF2/3 to confer tolerance of Arabidopsis thaliana to oxidative stress” (Journal of Experimental Botany, 2014), this text covers binding for seven molecules.

No constants are given. Whether binding was seen depends on the method and setting. For some of these results: In cells and extracts the contact can be indirect. Some results given as binding are weak or reduced against the parent protein; the word gives no strength. Tags and fused reporters may be left off the sequences shown.

Assay [1] addresses T1, MSRB7 cloned into pDEST22 (yeast two-hybrid) (A. thaliana) (UniProt Q8VY86).
T1 sequence: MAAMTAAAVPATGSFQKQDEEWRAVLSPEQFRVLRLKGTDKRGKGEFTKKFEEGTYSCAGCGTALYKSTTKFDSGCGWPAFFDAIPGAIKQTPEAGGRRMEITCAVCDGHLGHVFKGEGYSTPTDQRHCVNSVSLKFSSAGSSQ
Put plainly: two-hybrid; ProQuest two-hybrid system, yeast strain MaV203; MSRB7 in pDEST22 as bait, GSTs in pDEST32 as prey; selection on SD –Leu–Trp and –Leu–Trp–His; three biological repeats.

Assay [2] concerns the target T2, MSRB7 fused with the C-terminal fragment of yellow fluorescence protein (YFP) (A. thaliana) (UniProt Q8VY86).
T2 sequence: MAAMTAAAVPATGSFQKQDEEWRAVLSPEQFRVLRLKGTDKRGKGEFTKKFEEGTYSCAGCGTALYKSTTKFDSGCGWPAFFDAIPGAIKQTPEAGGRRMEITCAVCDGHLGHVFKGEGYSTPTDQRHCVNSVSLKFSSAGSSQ
Put plainly: split reporter; BiFC in A. thaliana protoplasts co-transformed with BiFC plasmids and the nuclear marker bZIP63–CFP; 16 h at room temperature under light; confocal microscopy.

Assay [3] concerns the target T3, His–flag–MSRB7 (A. thaliana) (UniProt Q8VY86).
T3 sequence: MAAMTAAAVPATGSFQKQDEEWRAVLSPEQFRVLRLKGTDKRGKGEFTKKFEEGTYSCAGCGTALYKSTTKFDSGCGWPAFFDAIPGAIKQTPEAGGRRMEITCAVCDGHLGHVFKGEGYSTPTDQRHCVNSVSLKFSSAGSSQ
The experiment in a line: co-IP; recombinant His–flag–MSRB7 and oxidized His–GSTs incubated with rabbit anti-flag antibody in IP buffer (15 mM HEPES pH 7.4, 1 mM EDTA, 1 mM DTT, 10 mM MgCl2, 30 mM KCl) 1 h at room temperature; Protein G–Sepharose; blot with mouse anti-His antibody; both purified.

B1: GSTF8 cloned into pDEST32 (yeast two-hybrid) (enzyme, UniProt Q96266 1-263)
chain: MGAIQARLPLFLSPPSIKHHTFLHSSSSNSNFKIRSNKSSSSSSSSIIMASIKVHGVPMSTATMRVLATLYEKDLQFELIPVDMRAGAHKQEAHLALNPFGQIPALEDGDLTLFESRAITQYLAEEYSEKGEKLISQDCKKVKATTNVWLQVEGQQFDPNASKLAFERVFKGMFGMTTDPAAVQELEGKLQKVLDVYEARLAKSEFLAGDSFTLADLHHLPAIHYLLGTDSKVLFDSRPKVSEWIKKISARPAWAKVIDLQKQ
In the case of B1, the binding result in assay [1] is recorded as “binds weakly”.

B2: GSTF2 fused with the N-terminal fragment of YFP (enzyme, UniProt P46422 1-212)
chain: MAGIKVFGHPASIATRRVLIALHEKNLDFELVHVELKDGEHKKEPFLSRNPFGQVPAFEDGDLKLFESRAITQYIAHRYENQGTNLLQTDSKNISQYAIMAIGMQVEDHQFDPVASKLAFEQIFKSIYGLTTDEAVVAEEEAKLAKVLDVYEARLKEFKYLAGETFTLTDLHHIPAIQYLLGTPTKKLFTERPRVNEWVAEITKRPASEKVQ
Turning to B2, the binding entry in assay [2] is recorded as “binds”.

B3: GSTF2 cloned into pDEST32 (yeast two-hybrid) (enzyme, UniProt P46422 1-212)
chain: MAGIKVFGHPASIATRRVLIALHEKNLDFELVHVELKDGEHKKEPFLSRNPFGQVPAFEDGDLKLFESRAITQYIAHRYENQGTNLLQTDSKNISQYAIMAIGMQVEDHQFDPVASKLAFEQIFKSIYGLTTDEAVVAEEEAKLAKVLDVYEARLKEFKYLAGETFTLTDLHHIPAIQYLLGTPTKKLFTERPRVNEWVAEITKRPASEKVQ
Turning to B3, in assay [1], the binding result is given as “binds weakly”.

B4: GSTF3 fused with the N-terminal fragment of YFP (enzyme, UniProt Q9SLM6 1-212)
chain: MAGIKVFGHPASTSTRRVLIALHEKNLDFELVHVELKDGEHKKEPFLSRNPFGQVPAFEDGDLKLFESRAITQYIAHRYENQGTNLLPADSKNIAQYAIMSIGIQVEAHQFDPVASKLAWEQVFKFNYGLNTDQAVVAEEEAKLAKVLDVYEARLKEFKYLAGETFTLTDLHHIPVIQYLLGTPTKKLFTERPRVNEWVAEITKRPASEKVL
Take B4: in assay [2], the binding result is given as “binds”.

B5: GSTF3 cloned into pDEST32 (yeast two-hybrid) (enzyme, UniProt Q9SLM6 1-212)
chain: MAGIKVFGHPASTSTRRVLIALHEKNLDFELVHVELKDGEHKKEPFLSRNPFGQVPAFEDGDLKLFESRAITQYIAHRYENQGTNLLPADSKNIAQYAIMSIGIQVEAHQFDPVASKLAWEQVFKFNYGLNTDQAVVAEEEAKLAKVLDVYEARLKEFKYLAGETFTLTDLHHIPVIQYLLGTPTKKLFTERPRVNEWVAEITKRPASEKVL
Take B5: the binding entry in assay [1] was “binds weakly”.

B6: GSTF8 fused with the N-terminal fragment of YFP (enzyme, UniProt Q96266 50-263)
chain: ASIKVHGVPMSTATMRVLATLYEKDLQFELIPVDMRAGAHKQEAHLALNPFGQIPALEDGDLTLFESRAITQYLAEEYSEKGEKLISQDCKKVKATTNVWLQVEGQQFDPNASKLAFERVFKGMFGMTTDPAAVQELEGKLQKVLDVYEARLAKSEFLAGDSFTLADLHHLPAIHYLLGTDSKVLFDSRPKVSEWIKKISARPAWAKVIDLQKQ
On to B6, for which the binding result in assay [2] is on record as “binds”.

B7: oxidized His–GSTF8 (enzyme, UniProt Q96266 50-263)
chain: ASIKVHGVPMSTATMRVLATLYEKDLQFELIPVDMRAGAHKQEAHLALNPFGQIPALEDGDLTLFESRAITQYLAEEYSEKGEKLISQDCKKVKATTNVWLQVEGQQFDPNASKLAFERVFKGMFGMTTDPAAVQELEGKLQKVLDVYEARLAKSEFLAGDSFTLADLHHLPAIHYLLGTDSKVLFDSRPKVSEWIKKISARPAWAKVIDLQKQ
modifications: oxidized (positions not stated for this sample)
For B7, the binding entry in assay [3] is reported as “binds”.
